Experimental findings from PMC5415356 are described below.

Amino acid sequences for entries named in this document (tags omitted).
UniProt P46937: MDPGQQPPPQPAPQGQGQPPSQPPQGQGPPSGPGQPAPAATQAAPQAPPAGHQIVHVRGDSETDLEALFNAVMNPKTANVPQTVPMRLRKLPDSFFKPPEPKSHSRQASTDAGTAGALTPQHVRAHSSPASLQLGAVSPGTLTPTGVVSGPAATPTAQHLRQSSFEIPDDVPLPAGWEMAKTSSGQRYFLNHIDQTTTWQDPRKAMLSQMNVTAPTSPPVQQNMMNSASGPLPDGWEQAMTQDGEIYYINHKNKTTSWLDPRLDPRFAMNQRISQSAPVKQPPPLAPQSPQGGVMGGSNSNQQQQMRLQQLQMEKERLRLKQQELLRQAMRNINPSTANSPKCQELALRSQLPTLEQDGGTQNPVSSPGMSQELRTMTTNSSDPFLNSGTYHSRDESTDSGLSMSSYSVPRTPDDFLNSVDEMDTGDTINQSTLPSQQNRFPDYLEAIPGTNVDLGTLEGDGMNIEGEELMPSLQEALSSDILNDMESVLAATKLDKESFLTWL

Residue numbers refer to the chain shown, from its start. These are yes or no findings as the source states them, for the method shown. Binding seen in cells or lysates may run through a third protein. Some binding calls cover weakened binding; strength is not graded here. Where a sequence is shown, tags or fusion partners need not be part of it.

In test [1] the target is T1, HA-Amot-p130^S176A (mouse (by the paper's numbering: Ser176 in mouse, Ser175 in human)) (UniProt Q8VHG2).
T1 sequence: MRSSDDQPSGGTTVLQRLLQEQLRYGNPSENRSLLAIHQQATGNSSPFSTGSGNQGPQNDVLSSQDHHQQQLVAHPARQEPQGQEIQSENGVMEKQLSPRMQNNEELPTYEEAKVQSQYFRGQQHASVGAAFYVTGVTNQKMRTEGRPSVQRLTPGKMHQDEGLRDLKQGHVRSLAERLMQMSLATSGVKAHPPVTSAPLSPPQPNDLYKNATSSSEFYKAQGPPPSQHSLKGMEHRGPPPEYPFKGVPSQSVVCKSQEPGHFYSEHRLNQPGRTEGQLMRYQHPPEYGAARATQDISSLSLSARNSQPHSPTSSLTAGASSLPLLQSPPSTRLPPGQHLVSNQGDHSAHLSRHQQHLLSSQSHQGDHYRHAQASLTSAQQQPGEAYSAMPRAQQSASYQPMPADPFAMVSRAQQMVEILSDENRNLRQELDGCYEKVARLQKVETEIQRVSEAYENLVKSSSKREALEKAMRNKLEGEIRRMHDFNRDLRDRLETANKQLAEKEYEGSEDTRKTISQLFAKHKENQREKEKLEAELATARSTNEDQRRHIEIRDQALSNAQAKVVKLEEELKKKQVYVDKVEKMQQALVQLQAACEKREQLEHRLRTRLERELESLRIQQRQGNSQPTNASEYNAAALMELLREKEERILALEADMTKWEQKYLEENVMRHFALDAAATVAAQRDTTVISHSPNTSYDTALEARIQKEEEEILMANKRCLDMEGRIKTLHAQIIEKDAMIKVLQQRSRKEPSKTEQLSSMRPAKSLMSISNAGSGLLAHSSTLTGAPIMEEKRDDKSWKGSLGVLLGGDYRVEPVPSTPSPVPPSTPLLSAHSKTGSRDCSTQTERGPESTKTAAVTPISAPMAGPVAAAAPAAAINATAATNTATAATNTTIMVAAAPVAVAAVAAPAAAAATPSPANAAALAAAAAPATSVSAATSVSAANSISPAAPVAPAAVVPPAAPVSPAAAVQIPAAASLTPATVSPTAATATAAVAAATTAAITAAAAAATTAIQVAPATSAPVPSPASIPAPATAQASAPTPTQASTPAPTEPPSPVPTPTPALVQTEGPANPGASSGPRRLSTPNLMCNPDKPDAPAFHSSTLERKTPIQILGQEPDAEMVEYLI
Put plainly: co-IP; HepG2 cells co-transfected with YAP and an Amot allele, fractionated into cytoplasmic, nuclear and plasma membrane fractions; Amot IP of each fraction, anti-YAP immunoblot. On the technique in general: A western blot detects proteins with antibodies after separation by electrophoresis.

Test [2] addresses T2, HA-Amot-p130^S176E (mouse (by the paper's numbering: Ser176 in mouse, Ser175 in human)) (UniProt Q8VHG2).
T2 sequence: T1 sequence with A176E
Put plainly: co-IP; HEK293-shAmot cells co-transfected with YAP and an Amot allele, fractionated into cytoplasmic, nuclear and plasma membrane fractions; Amot IP of each fraction, anti-YAP immunoblot.

As to “V5-tagged YAP (from UniProt P46937 1-504)”, the binding result in test [1] and in test [2] was “binds” in each case.
